Our source for the binding values is PMC12007496.

Chains of the proteins cited; added tags and fusions are not shown. Residues count along the entry.
UniProt P05622, residues 32-1098: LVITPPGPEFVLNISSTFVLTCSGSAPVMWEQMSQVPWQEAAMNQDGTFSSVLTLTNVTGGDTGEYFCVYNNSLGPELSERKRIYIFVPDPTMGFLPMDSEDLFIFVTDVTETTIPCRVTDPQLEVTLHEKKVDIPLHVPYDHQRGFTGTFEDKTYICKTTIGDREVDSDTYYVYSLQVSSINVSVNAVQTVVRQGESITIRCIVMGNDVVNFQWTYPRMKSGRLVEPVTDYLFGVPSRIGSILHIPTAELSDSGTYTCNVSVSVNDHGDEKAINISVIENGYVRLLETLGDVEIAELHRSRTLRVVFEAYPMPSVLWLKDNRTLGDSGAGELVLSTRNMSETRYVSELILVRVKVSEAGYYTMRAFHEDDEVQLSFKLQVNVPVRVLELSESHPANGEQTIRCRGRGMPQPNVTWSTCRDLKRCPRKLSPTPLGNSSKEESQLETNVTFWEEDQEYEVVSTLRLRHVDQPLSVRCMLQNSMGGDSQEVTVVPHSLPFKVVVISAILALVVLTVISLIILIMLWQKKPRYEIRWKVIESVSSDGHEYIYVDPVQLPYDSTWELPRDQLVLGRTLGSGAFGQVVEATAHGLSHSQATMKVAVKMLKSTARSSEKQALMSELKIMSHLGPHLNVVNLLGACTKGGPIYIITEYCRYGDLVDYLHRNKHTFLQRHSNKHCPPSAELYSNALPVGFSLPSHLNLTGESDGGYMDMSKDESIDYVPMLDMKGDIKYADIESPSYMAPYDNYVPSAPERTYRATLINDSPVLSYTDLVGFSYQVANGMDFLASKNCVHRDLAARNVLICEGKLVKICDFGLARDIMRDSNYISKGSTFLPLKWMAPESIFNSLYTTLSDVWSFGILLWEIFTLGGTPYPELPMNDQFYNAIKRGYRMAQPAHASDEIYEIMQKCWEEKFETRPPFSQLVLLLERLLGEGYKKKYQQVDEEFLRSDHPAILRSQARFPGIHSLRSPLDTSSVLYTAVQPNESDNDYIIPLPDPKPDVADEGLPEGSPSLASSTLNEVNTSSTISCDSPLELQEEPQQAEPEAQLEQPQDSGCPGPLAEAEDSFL
UniProt P46935: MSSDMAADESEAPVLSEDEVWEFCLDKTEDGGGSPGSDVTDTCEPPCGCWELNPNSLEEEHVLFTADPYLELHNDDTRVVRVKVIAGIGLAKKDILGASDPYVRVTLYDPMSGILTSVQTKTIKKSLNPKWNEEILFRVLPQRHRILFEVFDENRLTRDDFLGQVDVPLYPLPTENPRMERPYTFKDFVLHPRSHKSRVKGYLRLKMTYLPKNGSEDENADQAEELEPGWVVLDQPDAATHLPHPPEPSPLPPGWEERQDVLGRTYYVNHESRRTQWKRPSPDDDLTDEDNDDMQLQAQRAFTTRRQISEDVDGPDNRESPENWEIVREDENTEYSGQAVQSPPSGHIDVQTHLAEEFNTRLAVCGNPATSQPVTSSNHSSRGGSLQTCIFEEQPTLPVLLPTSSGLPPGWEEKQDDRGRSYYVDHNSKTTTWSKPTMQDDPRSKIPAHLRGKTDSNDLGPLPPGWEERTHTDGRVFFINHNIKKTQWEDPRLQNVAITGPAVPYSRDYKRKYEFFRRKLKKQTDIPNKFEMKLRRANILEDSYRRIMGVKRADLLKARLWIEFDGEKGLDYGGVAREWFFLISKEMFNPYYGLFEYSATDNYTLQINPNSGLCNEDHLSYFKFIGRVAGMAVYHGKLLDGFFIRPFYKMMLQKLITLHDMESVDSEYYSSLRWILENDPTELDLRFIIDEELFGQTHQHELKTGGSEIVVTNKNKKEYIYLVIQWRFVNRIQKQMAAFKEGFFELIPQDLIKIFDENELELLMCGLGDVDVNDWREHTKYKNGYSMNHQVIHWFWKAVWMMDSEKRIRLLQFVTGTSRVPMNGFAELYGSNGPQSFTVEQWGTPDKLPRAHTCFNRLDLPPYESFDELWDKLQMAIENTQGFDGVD

Results are given in words; binding and its absence hold for the method and conditions named. Binding seen in cells or lysates may run through a third protein. Some results given as binding are weak or reduced against the parent protein; the word gives no strength.

For the experiment, the target named is Platelet-derived growth factor receptor (PDGFR)β (mouse (endogenous in mouse VSMCs)) (UniProt P05622). Nature of the experiment: co-IP; anti-PDGFRβ antibody with protein A/G beads in lysates of mouse VSMCs (150 mM NaCl, 50 mM Tris-HCl pH 8.0, 1.0% NP-40, 0.5% sodium deoxycholate, 0.1% SDS), overnight at 4 °C, western blot; cells with control or CDCP1 siRNA, with or without PDGF-BB stimulation. For orientation: In western blotting, separated proteins are transferred to a membrane and probed.

For “NEDD4 (from UniProt P46935 1-887) (enzyme)”, the binding entry is reported as “binds”.
